Test results reported in paper PMC5494183.
Results are given in words; binding and its absence hold for the method and conditions named. In cells and extracts the contact can be indirect. Binding calls can cover weak binding; strength is not graded here. Sequences can lack the tags named with a protein.

Molecular target: ΔN10-NANOS2 (mouse)
Experiment: co-IP; HEK 293T cells transfected with MYC- and FLAG-tagged constructs; anti-FLAG M2 affinity beads overnight at 4 °C, five washes; western blot

B1: MYC-NDFIP2 (protein, UniProt Q91ZP6 1-311)
chain: RRSASDAELSAGAEGATGSEAAPPGDLGGRTRGGGRGSAAAAATTSTREAEGAERRGDTPARKPDPEAGRMDHHQLGTGRYQVLHNEEDNSESSAVEQPSTSSLAAPTVEAAASAPALDPDSPPPYSSITVEAPTTSDTDVYSEFYPVPPPYSVATSLPTYDEAEKAKAAALAAAAADAPQRNQEEDCTPRDDFSDVEQLRVGNDGIFMLAFFMAFIFNWLGFCLSFCITNTIAGRYGAICGFGLSLIKWILIVRFSDYFTGYFNGQYWLWWIFLVLGLLLFFRGFVNYLKVRNMSESMAAAHRTRYFFLL
  binding: binds weakly
